Source: US8575310B2, “Bioactive pentapeptides from rice bran and use thereof” (Board of Trustees of the University of Arkansas, priority 2009, dated 2013)
Not every detail of the peptide structures is certain; ends, links or a residue may be inferred. No end group written: not given here.

Tested on: human preadipocytes
Test: Adipocyte differentiation / viability, trypan blue dye exclusion assay
Type: cell-based

EQRPR [bioactive pentapeptide, Glu-Gln-Arg-Pro-Arg]
adipocyte viability more than control: ~70%
